In one experiment the target is GST-fused BAF60c (UniProt Q6P9Z1). In words: pull-down; GST fusion on glutathione Sepharose 4B beads incubated with 35S-labeled in vitro translated protein overnight at 4°C, washed with PBST three times; SDS-PAGE and autoradiography; only the target purified.
The target of another experiment is T1, GST-fused BAF60c, Q6P9Z1.
T1 chain: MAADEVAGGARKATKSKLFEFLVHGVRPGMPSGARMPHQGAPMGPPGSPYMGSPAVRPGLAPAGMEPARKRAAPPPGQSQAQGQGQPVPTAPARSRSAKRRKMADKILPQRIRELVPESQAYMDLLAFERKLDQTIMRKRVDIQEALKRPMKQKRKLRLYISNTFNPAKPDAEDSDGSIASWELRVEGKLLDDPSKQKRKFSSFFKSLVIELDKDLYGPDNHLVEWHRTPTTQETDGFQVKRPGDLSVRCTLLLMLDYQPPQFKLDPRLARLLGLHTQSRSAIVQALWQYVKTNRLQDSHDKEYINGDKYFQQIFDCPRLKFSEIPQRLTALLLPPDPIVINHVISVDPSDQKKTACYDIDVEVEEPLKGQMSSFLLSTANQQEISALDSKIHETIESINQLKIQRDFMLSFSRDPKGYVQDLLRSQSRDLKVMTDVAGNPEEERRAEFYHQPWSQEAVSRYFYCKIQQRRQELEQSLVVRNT
The experiment is described as above. The conditions noted are these: remark: other sources report otherwise.

Amino acid sequences for entries named in this document (tags omitted).
UniProt P42582: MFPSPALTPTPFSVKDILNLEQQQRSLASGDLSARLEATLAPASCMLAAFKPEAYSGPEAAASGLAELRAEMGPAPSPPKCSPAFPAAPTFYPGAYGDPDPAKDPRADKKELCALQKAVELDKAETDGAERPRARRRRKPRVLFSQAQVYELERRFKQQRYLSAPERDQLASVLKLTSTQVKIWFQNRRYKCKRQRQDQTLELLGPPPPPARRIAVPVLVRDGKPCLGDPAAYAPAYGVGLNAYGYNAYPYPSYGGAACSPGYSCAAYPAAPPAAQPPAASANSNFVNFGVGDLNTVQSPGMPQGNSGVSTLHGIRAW
UniProt Q8VIM5: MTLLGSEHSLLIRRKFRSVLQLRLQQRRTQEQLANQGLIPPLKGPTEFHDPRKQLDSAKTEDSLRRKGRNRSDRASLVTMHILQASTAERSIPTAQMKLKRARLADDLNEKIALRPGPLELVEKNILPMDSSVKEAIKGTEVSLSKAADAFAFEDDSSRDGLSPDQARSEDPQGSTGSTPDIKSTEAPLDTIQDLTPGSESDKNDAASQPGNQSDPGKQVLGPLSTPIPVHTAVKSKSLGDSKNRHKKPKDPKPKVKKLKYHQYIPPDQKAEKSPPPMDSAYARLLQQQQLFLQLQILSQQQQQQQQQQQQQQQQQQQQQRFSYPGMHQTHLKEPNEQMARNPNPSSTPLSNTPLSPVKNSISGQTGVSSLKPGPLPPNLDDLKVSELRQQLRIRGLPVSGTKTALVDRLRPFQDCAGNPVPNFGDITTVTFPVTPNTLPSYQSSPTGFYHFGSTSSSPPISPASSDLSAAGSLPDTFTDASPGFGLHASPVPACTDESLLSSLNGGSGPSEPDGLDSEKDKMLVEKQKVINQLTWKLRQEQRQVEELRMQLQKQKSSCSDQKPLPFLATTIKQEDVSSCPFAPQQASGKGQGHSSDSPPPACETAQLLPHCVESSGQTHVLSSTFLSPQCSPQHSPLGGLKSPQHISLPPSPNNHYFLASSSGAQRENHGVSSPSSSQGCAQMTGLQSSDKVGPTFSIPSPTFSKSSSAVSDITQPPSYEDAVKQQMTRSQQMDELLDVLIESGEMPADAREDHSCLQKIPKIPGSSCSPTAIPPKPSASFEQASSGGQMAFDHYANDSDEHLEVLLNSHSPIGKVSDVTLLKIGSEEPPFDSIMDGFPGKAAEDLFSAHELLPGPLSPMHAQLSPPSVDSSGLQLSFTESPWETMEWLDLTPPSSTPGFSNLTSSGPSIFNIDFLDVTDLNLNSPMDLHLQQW

Results are given in words; binding and its absence hold for the method and conditions named. In cells and extracts the contact can be indirect. Some results given as binding are weak or reduced against the parent protein; the word gives no strength. For part of these data: Tags and fused reporters may be left off the sequences shown.

Turning to “35S-labeled, in-vitro synthesized NKX2-5 (from UniProt P42582 1-318)”, the binding entry with GST-fused BAF60c is “binds”.
Still for that read-out and setting: under “full-length Myocardin, in vitro synthesized (from UniProt Q8VIM5 1-935)” stands “binds”.

B1: 35S-labeled, in-vitro synthesized TBX5, P70326 1-518 (protein)
chain: MADTDEGFGLARTPLEPDSKDRSCDSKPESALGAPSKSPSSPQAAFTQQGMEGIKVFLHERELWLKFHEVGTEMIITKAGRRMFPSYKVKVTGLNPKTKYILLMDIVPADDHRYKFADNKWSVTGKAEPAMPGRLYVHPDSPATGAHWMRQLVSFQKLKLTNNHLDPFGHIILNSMHKYQPRLHIVKADENNGFGSKNTAFCTHVFPETAFIAVTSYQNHKITQLKIENNPFAKGFRGSDDLELHRMSRMQSKEYPVVPRSTVRHKVTSNHSPFSSETRALSTSSNLGSQYQCENGVSGPSQDLLPPPNPYPLAQEHSQIYHCTKRKDEECSSTEHPYKKPYMETSPSEEDTFYRSGYPQQQGLSTSYRTESAQRQACMYASSAPPSEPVPSLEDISCNTWPSMPSYSSCTVTTVQPMDRLPYQHFSAHFTSGPLVPRLAGMANHGSPQLGEGMFQHQTSVAHQPVVRQCGPQTGLQSPGGLQPPEFLYTHGVPRTLSPHQYHSVHGVGMVPEWSENS
modifications: here or on the partner: 35S methionine label
B1: the binding result with GST-fused BAF60c, Q6P9Z1 is “binds”.

Values taken from PMC5829499.
